Five sequences from paper PMC11615771 can be followed below.

The test system of series [1] is GST-GhNFYA5. The experiment in a line: EMSA. The following applies: 2 ug protein; EMSA: 2 ug GST-GhNFYA5, EMSA/Gel-Shift binding buffer (Beyotime GS005; composition, salt and pH not stated), 30 min, room temperature, 6.5% polyacrylamide gel; recombinant protein; protein details: GST (N-terminal, pGEX-4T); label: biotin (F and R strands). Background: In EMSA bound probe runs differently from free probe, usually more slowly.

In series [2] the test system is GST-GhNFYA5. The experiment in a line: competition with a labelled probe. The following applies: unlabeled, EMSA: 2 ug GST-GhNFYA5, EMSA/Gel-Shift binding buffer (Beyotime GS005; composition, salt and pH not stated), 30 min, room temperature, 6.5% polyacrylamide gel, recombinant protein, protein details: GST (N-terminal, pGEX-4T).

The exact form of at least one protein or probe is not confirmed. No signal at the amounts used counts as a negative.

With “ATAGAATTCACATTAATTACACTTACAAATGGACCACCGATATACTTATAATGCC (double strand) [Probe2 GbOSM1 promoter CCGAT]”, the binding result in the series with GST-GhNFYA5 [1] is given as “no binding”.

For “ATAGAATTCACATTAATTACACTTACAAATGGACCACCAATATACTTATAATGCC (double strand) [Probe1 GhOSM1 promoter CCAAT]”, the binding result in the series with GST-GhNFYA5 [1] is recorded as “binds”.

On to “ATAGAATTCACATTAATTACACTTACAAATGGACCACCAATATACTTATAATGCC (double strand) [Comp probe (unlabeled Probe1)]”, for which the binding result in the series on GST-GhNFYA5 [2] (100x and 200x excess over labeled Probe1) was “binds”.

As to “ATAGAATTCACATTAATTACACTTACAAATGGACCACCCCTATACTTATAATGCC (double strand) [mComp mutant probe (unlabeled)]”, the binding result in the series with GST-GhNFYA5 [2] (100x and 200x excess over labeled Probe1, did not compete) is “no binding”.

For “ATAGAATTCACATTAATTACACTTACAAATGGACCACCCCTATACTTATAATGCC (double strand) [Probe3 CCCCT mutant]”, the binding result in the series on GST-GhNFYA5 [1] was “no binding”.
